Reference: publication doi:10.1101/744672
No constants are given. Whether binding was seen depends on the method and setting. In cells and extracts the contact can be indirect. Some results given as binding are weak or reduced against the parent protein; the word gives no strength.

Amino acid sequences for entries named in this document (tags omitted). A change or cut given only in a name is not applied to a line headed by its entry.
UniProt Q96CV9, whole entry: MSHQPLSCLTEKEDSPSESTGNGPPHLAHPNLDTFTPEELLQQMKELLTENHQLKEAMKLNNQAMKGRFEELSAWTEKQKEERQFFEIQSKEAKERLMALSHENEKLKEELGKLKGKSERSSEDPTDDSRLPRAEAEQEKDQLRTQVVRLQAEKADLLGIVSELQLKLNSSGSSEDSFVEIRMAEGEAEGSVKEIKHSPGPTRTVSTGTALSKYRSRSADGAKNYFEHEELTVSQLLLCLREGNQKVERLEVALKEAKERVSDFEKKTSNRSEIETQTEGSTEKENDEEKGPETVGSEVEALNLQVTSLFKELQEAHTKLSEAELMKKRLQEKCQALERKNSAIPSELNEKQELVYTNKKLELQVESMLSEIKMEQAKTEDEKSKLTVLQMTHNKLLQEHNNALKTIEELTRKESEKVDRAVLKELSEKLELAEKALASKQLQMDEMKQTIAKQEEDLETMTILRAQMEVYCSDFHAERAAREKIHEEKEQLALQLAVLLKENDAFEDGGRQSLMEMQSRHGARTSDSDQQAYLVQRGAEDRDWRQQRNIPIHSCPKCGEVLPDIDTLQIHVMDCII
UniProt Q96EP0, whole entry: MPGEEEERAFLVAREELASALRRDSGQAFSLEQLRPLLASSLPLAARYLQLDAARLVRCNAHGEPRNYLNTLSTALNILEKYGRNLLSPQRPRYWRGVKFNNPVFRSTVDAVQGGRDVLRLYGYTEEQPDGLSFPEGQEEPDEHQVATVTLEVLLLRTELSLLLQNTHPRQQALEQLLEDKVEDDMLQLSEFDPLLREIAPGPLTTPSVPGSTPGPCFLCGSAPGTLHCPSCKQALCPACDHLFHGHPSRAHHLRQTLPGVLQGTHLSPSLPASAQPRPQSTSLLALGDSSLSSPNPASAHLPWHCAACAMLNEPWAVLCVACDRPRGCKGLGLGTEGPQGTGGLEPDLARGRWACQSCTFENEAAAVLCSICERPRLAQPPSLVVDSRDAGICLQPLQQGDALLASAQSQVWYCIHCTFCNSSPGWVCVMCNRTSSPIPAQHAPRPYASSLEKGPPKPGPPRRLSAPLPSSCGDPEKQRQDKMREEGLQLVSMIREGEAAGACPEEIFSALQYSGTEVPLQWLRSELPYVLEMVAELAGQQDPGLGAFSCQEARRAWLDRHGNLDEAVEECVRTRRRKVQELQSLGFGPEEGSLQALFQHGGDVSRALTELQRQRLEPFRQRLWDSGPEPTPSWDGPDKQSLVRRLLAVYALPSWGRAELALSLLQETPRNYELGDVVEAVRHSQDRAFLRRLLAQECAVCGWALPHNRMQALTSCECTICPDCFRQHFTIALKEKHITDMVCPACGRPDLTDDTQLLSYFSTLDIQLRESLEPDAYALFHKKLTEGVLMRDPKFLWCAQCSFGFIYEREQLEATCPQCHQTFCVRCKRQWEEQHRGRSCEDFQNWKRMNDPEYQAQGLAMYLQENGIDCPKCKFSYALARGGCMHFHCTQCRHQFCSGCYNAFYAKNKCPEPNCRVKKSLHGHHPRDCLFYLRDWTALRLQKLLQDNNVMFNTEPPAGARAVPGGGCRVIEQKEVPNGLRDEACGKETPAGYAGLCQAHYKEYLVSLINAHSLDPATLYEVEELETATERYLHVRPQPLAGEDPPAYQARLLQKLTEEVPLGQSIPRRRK

What was measured:
Experiment in all cases: co-IP
GFP-OPTN wild-type = GFP-OPTN wild-type (UniProt Q96CV9)
GFP-OPTN E50K = GFP-OPTN E50K (UniProt Q96CV9)
GFP-OPTN E478G = GFP-OPTN E478G (UniProt Q96CV9)

binding (GFP-OPTN wild-type): binds
binding (GFP-OPTN E50K): binds
binding (GFP-OPTN E478G): no binding
Substance: HA-HOIP (from UniProt Q96EP0 1-1072)
